Results deposited as PubChem BioAssay AID1259327 (Drosophila RNAi Screening Center, 2017).

Test: 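Knock-downs altering cellular ATP with no metal added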
System: Drosophila S2R+ cells
Reagent: long dsRNA against Drosophila genes
Duration: 5 days (water added on day 4, read one day later)
Treatment: water added as vehicle, no metal, one day before read-out
Measurement: 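Total ATP measured by luciferase light, scaled to plate mean, duplicates averaged, then z-scored across plates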
Reading the numbers: ATP z-score: higher = more total ATP than typical wells; ATP luminescence: higher = more total ATP
Call rule: 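a hit is any knock-down whose absolute ATP z-score is greater than 1.5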
Calls: active = hit: ATP up or down; inactive = no clear ATP change
The whole screen tested about 3,100 reagents; this is an unselected part. 378 of them (12%) count as active. 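Hits include both directions; z-score sign shows ATP rise or fall; raw luminescence values are not plate-normalised.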 Not stated in the record: the amount of reagent.

Gene	amplicon	ATP z-score, duplicate mean	ATP luminescence, replicate 1 (RLU)	ATP luminescence, replicate 2 (RLU)	call
CG3036	DRSC00562	-0.123	4.62e5	4.79e5	inactive
CG3036	DRSC24856	0.454	9.20e5	8.38e5	inactive
Ekar	DRSC17161	-1.05	5.51e5	7.04e5	inactive
Ekar	DRSC24931	1.13	1.13e6	8.50e5	inactive
CG17646	DRSC00507	1.05	5.55e5	5.50e5	inactive
CG17646	DRSC39859	-1.82	4.01e5	4.60e5	active
Tsp3A	DRSC18656	0.288	7.52e5	7.22e5	inactive
Tsp3A	DRSC25654	-0.391	8.13e5	7.90e5	inactive
Nckx30C	DRSC02686	-1.26	6.01e5	5.85e5	inactive
Nckx30C	DRSC02687	0.518	7.54e5	8.08e5	inactive
Nckx30C	DRSC02688	1.87	1.07e6	1.21e6	active

Just “ATP luminescence, replicate 1 (RLU)”, for 3 of the entries above:
CG17646 [DRSC00507]: 5.55e5
CG17646 [DRSC39859]: 4.01e5
Tsp3A [DRSC18656]: 7.52e5

Continued.
Gene	amplicon	ATP z-score, duplicate mean	ATP luminescence, replicate 1 (RLU)	ATP luminescence, replicate 2 (RLU)	call
CG5592	DRSC10524	1.33	9.54e5	1.18e6	inactive
CG5592	DRSC39427	-1.06	4.26e5	3.42e5	inactive
CG3649	DRSC04400	0.129	7.11e5	7.68e5	inactive
CG3649	DRSC28728	-0.814	7.52e5	7.00e5	inactive
lz	DRSC25157	-0.965	7.54e5	7.06e5	inactive
lz	DRSC37587	-0.587	4.92e5	5.68e5	inactive
CG15406	DRSC00420	-1.08	6.23e5	5.67e5	inactive
CG15406	DRSC28108	-1.68	9.46e5	1.09e6	active
CG18788	DRSC02697	-0.283	7.09e5	6.84e5	inactive
CG17036	DRSC02564	1.88	9.08e5	9.43e5	active
CG17036	DRSC28145	0.332	9.54e5	1.10e6	inactive
crq	DRSC00810	-0.0533	7.10e5	6.90e5	inactive
Asph	DRSC06783	0.809	6.60e5	7.26e5	inactive
Asph	DRSC29507	-0.241	8.00e5	7.87e5	inactive
nSyb	DRSC08727	-0.059	7.07e5	7.43e5	inactive
nSyb	DRSC27077	-1.97	7.97e5	8.36e5	active
CG6125	DRSC15970	-0.166	3.09e5	6.99e5	inactive
